These are yes or no findings as the source states them, for the method shown. Some entries that bind do so weakly or less than the wild type.
Target: Notch1 receptor with a citrine tag at its ECD (Notch1-citrine) (UniProt P46531)
Experiment: live-cell trans-endocytosis (TEC) imaging of co-cultured cells; CHO-TetR cells with Notch1-citrine co-cultured 1:1 with CHO-TetR cells with mCherry-tagged ligand variants; spinning disk confocal, 37 °C; images 10 h after induction of ligand expression with 100 ng/mL dox

Sequences of proteins named here, by UniProt entry; tags and fusion partners are left off. Residues count along the entry.
UniProt P46531, residues 19-2555: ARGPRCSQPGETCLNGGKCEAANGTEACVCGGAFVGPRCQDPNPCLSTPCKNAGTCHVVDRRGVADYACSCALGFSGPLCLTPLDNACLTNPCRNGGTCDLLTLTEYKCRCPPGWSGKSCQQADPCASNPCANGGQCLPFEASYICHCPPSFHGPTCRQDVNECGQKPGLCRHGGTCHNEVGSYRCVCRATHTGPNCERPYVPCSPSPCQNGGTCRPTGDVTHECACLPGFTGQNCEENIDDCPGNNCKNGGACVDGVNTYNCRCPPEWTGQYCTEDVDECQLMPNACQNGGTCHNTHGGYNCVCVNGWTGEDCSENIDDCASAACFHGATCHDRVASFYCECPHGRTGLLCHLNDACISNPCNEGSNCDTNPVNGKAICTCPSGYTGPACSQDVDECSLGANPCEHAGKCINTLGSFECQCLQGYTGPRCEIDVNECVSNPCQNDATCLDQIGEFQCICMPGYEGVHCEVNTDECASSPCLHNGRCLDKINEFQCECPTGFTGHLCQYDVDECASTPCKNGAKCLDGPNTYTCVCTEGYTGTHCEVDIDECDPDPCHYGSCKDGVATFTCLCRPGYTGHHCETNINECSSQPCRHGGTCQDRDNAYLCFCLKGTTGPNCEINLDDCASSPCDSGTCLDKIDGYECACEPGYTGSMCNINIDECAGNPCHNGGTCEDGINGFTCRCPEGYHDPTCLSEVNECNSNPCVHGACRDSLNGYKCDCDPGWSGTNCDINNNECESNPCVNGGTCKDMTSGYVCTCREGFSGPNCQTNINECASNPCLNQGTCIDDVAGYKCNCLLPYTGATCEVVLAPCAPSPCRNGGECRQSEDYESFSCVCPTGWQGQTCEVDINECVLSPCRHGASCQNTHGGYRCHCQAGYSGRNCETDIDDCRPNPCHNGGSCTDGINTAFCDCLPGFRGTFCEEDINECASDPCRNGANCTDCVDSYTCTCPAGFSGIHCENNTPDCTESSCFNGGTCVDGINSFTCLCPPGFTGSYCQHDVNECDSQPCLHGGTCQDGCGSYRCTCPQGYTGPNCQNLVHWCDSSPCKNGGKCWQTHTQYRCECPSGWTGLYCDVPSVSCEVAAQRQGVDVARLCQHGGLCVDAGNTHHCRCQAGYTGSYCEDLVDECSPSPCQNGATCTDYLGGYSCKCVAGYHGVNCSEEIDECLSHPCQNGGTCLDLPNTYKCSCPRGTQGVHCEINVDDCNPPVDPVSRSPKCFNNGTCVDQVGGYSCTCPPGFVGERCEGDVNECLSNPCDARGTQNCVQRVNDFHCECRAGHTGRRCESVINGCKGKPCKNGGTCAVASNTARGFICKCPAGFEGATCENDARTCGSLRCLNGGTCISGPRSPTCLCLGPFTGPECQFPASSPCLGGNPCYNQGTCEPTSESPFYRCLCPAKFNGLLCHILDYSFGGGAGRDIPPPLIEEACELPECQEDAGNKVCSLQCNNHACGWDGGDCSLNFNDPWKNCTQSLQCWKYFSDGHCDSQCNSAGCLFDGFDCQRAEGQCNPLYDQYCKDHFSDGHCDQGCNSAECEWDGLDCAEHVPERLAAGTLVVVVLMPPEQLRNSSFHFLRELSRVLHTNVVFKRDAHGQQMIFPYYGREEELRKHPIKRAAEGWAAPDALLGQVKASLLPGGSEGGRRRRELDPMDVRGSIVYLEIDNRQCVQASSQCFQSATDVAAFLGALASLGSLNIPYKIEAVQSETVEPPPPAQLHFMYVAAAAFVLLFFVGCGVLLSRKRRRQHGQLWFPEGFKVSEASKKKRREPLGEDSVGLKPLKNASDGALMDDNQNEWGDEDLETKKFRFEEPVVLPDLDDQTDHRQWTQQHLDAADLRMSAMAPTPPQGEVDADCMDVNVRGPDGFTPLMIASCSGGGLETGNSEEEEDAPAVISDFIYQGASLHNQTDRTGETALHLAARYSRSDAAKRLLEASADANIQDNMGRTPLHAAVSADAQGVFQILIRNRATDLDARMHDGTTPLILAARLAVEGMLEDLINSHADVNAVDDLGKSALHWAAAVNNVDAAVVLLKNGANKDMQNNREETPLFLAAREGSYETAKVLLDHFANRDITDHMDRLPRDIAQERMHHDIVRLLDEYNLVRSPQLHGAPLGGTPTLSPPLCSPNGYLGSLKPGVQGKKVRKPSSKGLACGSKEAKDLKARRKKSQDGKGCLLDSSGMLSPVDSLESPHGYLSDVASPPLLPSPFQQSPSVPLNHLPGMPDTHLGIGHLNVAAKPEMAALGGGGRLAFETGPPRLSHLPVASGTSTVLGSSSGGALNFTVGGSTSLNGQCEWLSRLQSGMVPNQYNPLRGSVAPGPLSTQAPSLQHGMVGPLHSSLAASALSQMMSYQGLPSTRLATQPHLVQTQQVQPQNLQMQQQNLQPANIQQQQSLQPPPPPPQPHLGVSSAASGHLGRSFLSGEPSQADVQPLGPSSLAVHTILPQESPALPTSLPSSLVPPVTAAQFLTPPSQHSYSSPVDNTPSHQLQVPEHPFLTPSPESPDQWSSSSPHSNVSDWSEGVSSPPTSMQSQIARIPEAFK
UniProt O00548, residues 18-723: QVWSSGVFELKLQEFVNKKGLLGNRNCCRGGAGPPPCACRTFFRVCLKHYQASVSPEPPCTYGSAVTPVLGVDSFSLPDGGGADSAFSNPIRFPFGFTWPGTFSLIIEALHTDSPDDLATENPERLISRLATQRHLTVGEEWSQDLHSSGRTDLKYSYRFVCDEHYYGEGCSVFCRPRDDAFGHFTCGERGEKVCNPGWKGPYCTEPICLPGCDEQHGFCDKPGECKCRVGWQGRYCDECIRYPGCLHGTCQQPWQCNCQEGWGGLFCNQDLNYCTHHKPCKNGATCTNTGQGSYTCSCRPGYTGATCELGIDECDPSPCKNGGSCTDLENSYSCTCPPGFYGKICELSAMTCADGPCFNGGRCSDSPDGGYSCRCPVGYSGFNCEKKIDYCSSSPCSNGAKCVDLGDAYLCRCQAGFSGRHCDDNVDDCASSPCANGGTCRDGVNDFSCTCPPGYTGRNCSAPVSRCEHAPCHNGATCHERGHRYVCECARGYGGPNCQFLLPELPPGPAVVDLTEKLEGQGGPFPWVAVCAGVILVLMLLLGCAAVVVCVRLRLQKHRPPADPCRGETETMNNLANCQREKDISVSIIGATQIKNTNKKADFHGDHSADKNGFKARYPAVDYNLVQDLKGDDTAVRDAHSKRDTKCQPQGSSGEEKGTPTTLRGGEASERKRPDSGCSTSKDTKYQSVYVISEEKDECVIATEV

In the case of “wild type human Dll1 (hDll1) fused to mCherry (from UniProt O00548 18-723) (ligand)”, the binding is reported as “binds”.
